Experimental findings from PMC9825045 are described below.

No constants are given. Whether binding was seen depends on the method and setting. In cells and extracts the contact can be indirect. Binding calls can cover weak binding; strength is not graded here. Tags and fused reporters may be left off the sequences shown.

In the assay the target is T1, PAQR4 (tagged, exogenous co-IP) (human) (UniProt Q8N4S7).
T1 sequence: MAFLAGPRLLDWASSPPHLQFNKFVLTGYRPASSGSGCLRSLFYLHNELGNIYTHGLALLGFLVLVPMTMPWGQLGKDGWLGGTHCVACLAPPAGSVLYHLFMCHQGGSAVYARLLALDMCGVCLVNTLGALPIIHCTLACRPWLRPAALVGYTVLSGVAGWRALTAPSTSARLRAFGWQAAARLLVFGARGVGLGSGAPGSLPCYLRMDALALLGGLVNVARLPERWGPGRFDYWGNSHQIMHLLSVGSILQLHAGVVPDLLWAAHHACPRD
The assay can be described thus: co-IP; exogenous co-IP in HEK293T cells; IP lysis buffer, antibody overnight at 4 °C, magnetic agarose beads, washes with 0.5 M NaCl, 20 mM Na2HPO4, pH 7.0; Western blot.

AKT (exogenous co-IP): the binding entry is “binds”.
